For this assay, the target named is T1, LGG-2/LC3 used for the interactome analysis (affinity purification) (C. elegans) (UniProt Q23536).
T1 sequence: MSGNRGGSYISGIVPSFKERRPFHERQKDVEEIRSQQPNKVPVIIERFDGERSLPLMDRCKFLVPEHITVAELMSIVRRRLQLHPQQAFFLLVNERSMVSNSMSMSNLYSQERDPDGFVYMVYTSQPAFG
The assay is described as follows: affinity purification with mass spectrometry.

We go through one substance from paper doi:10.1101/2024.07.26.605287.

No constants are given. Whether binding was seen depends on the method and setting. Binding seen in cells or lysates may run through a third protein. These calls come from enrichment with a bait or labelling near it, and not all partners need be listed. A no says only that the protein was not detected with the bait.

For “RET-1 (reticulon protein), endogenous in worms (C. elegans (endogenous in worms))”, the binding result was “no binding”.
